Measured values from PubChem BioAssay (NCATS).
This list was built around the results that the source calls inconclusive (neither active nor inactive); the mix of calls is not that of the screen. Where the call is inconclusive, the potency comes from a doubtful curve fit. The source made the active and inactive calls. Calls come from the whole dose curve; as a rule, active = well fitted cell-killing curve with a large enough effect; inconclusive = small, poorly fitted or top-dose-only effect, or effect the other way; inactive = no such curve, though single readings can be large or run the other way.

Experiments:
[1] = Quantitative High-Throughput drug screen in 47 multiple myeloma cell lines against the NCATS MIPE library collection: KHM11_PLB cell viability assay (AID 1918962); details: KHM11 myeloma cell viability, CellTiter-Glo ATP luminescence, 48 h; viability, % of DMSO control: at 45.8 µM (top of the series) unless noted; note: nearly all actives have a fitted effect of over 35% in size
Procedure, shortened: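 Myeloma cells (500 per well) were exposed to MIPE 4.0 compounds by pin transfer and incubated 48 hours at 37C, 5% CO2. Viability was read as ATP by CellTiter-Glo luminescence, normalised to DMSO (100%) and media-only (0%) wells.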

[2] = Quantitative High-Throughput drug screen in 47 multiple myeloma cell lines against the NCATS MIPE library collection: JIM1_ECACC cell viability assay (AID 1918964); details: JIM1 myeloma viability, CellTiter-Glo ATP luminescence, 48 h; viability (% of DMSO): at 45.8 µM (top of the series)
Procedure, shortened: (§1)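 Viability readout: CellTiter-Glo luminescence following 5 min room-temperature incubation with reagent. Prior exposure: 48 h, 37C, humidified 5% CO2, 500 cells per well.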

[3] = Quantitative High-Throughput drug screen in 47 multiple myeloma cell lines against the NCATS MIPE library collection: JJN3_DSMZ cell viability assay (AID 1918966; note: nearly all actives have a fitted effect of over 50% in size)
Procedure, shortened: as §1

[4] = Quantitative High-Throughput drug screen in 47 multiple myeloma cell lines against the NCATS MIPE library collection: H1112_PLB cell viability assay (AID 1918967; note: nearly all actives have a fitted effect of over 30% in size)
Procedure, shortened: as §1

[5] = Quantitative High-Throughput drug screen in 47 multiple myeloma cell lines against the NCATS MIPE library collection: KMS27_JCRB cell viability assay (AID 1918970); details: KMS27 myeloma cells, CellTiter-Glo ATP viability, 48 h; viability (% of DMSO): at 45.8 µM (top of the series); note: nearly all actives have a fitted effect of over 30% in size
Procedure, shortened: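 Each line is seeded at 500 cells per well and treated with library compounds for 48 hours under 37 °C, 5% CO2. CellTiter-Glo is then added for 5 min at room temperature before median relative luminescence is recorded.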

[6] = Quantitative High-Throughput drug screen in 47 multiple myeloma cell lines against the NCATS MIPE library collection: KMS12BM_JCRB cell viability assay (AID 1918971); details: KMS12BM myeloma viability, CellTiter-Glo ATP, 48 h; viability, % of DMSO: at 45.8 µM (top of the series); note: nearly all actives have a fitted effect of over 35% in size
Procedure, shortened: as §1

[7] = Quantitative High-Throughput drug screen in 47 multiple myeloma cell lines against the NCATS MIPE library collection: KMS12PE_JCRB cell viability assay (AID 1918972); details: KMS12PE myeloma viability, CellTiter-Glo ATP, 48 h; viability: at 45.8 µM (top of the series); note: nearly all actives have a fitted effect of over 30% in size
Procedure, shortened: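 CellTiter-Glo ATP luminescence gave viability after 48 h compound treatment at 37C of 500 multiple myeloma cells per well. Normalisation used DMSO-only wells as 100% and media-only wells as 0% viability; primary qHTS of approved and investigational drugs.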

[8] = Quantitative High-Throughput drug screen in 47 multiple myeloma cell lines against the NCATS MIPE library collection: Karpas25_ECACC cell viability assay (AID 1918968; note: nearly all actives have a fitted effect of over 35% in size)
Procedure, shortened: as §1
Potency is the fitted concentration of half-maximal effect.

SMILES	Potency [1]	Potency [2]	Potency [3]	Potency [4]	Potency [5]	viability, % of DMSO control [1]	Potency [6]	Potency [7]	Potency [8]
C[C@]12C=CC(=O)C=C1CC[C@@H]1[C@@H]2[C@@H](O)C[C@@]2(C)[C@@H]1CC[C@]2(O)C(=O)CO	inconclusive: 1.48 µM [cytotoxic, full curve, poor fit]	inconclusive: 23.5 µM [cytotoxic, partial curve, poor fit]	inconclusive: 0.743 µM [cytotoxic, full curve, poor fit]	inactive	inactive	–	–	–	–
Cn1cnc2c(F)c(Nc3ccc(Br)cc3F)c(C(=O)NOCCO)cc21	–	inconclusive: 0.235 µM [cytotoxic, full curve, poor fit]	–	inconclusive: 0.118 µM [cytotoxic, full curve, poor fit]	–	inconclusive: 6.61% [cytotoxic]	inconclusive: 0.0105 µM [rising, full curve, poor fit]	inactive	–
CCC1(C)CC(=O)NC1=O (stereo not drawn)	inactive	inconclusive: 0.0042 µM [rising, full curve, poor fit]	inconclusive: 1.05 µM [cytotoxic, full curve, poor fit]	–	–	–	–	inactive	–
COc1ccc(CCN(C)CCCOc2ccc(S(=O)(=O)c3[nH]c4ccccc4c3C(C)C)cc2)cc1OC	inconclusive: 26.4 µM [cytotoxic, single point]	inconclusive: 7.43 µM [cytotoxic, partial curve, poor fit]	inconclusive: 18.7 µM [cytotoxic, partial curve, poor fit]	–	inactive	–	–	–	inconclusive: 18.7 µM [cytotoxic, partial curve, poor fit]
O=C(O)CCc1ccc(NCc2cccc(Oc3ccccc3)c2)cc1	inconclusive: 20.9 µM [rising, partial curve]	inconclusive: 0.0093 µM [rising, full curve, poor fit]	inconclusive: 0.0019 µM [rising, full curve, poor fit]	–	inactive	–	–	–	inconclusive: 0.0021 µM [rising, full curve, poor fit]
CCCc1nc(C(C)(C)O)c(C(=O)O)n1Cc1ccc(-c2ccccc2-c2nn[nH]n2)cc1	inactive	inconclusive: 0.0166 µM [rising, full curve, poor fit]	–	inconclusive: 0.0132 µM [rising, full curve, poor fit]	inactive	–	inactive	inactive	inactive
COc1ccc(C2(C#N)CCC(C(=O)O)CC2)cc1OC1CCCC1 (stereo not drawn)	inconclusive: 23.5 µM [rising, single point]	inconclusive: 0.0118 µM [rising, full curve, poor fit]	inactive	inconclusive: 26.4 µM [cytotoxic, single point]	–	–	inactive	–	–
CC(=O)SC[C@@H](C)C(=O)N1CCC[C@H]1C(=O)N[C@@H](Cc1ccccc1)C(=O)O	inactive	inactive	–	inconclusive: 7.43 µM [cytotoxic, partial curve, poor fit]	inconclusive: 0.0083 µM [cytotoxic, full curve, poor fit]	–	inactive	–	inactive
CC1=C(C(=O)O)N2C(=O)[C@@H](NC(=O)C(N)c3ccccc3)[C@H]2SC1 (stereo partly drawn)	inactive	inconclusive: 0.003 µM [rising, full curve, poor fit]	–	inactive	inconclusive: 0.0105 µM [cytotoxic, full curve, poor fit]	–	inconclusive: 0.296 µM [rising, full curve, poor fit]	–	–
CCC(=C(c1ccc(O)cc1)c1ccc(OCCNC)cc1)c1ccccc1	inconclusive: 33.2 µM [cytotoxic, partial curve, poor fit]	inconclusive: 33.2 µM [cytotoxic, single point]	active: 18.7 µM	–	inconclusive: 37.2 µM [cytotoxic, single point]	–	–	–	–
Cc1ccc(S(=O)(=O)NC(=O)NN2CC3CCCC3C2)cc1 (stereo not drawn)	inconclusive: 37.2 µM [cytotoxic, single point]	inconclusive: 18.7 µM [cytotoxic, partial curve, poor fit]	active: 23.5 µM	inconclusive: 20.9 µM [cytotoxic, partial curve]	–	–	inconclusive: 37.2 µM [cytotoxic, single point]	–	–
CC(C)[C@H](CO)Nc1nc(Nc2cccc(Cl)c2)c2ncn(C(C)C)c2n1	inconclusive: 37.2 µM [cytotoxic, partial curve, poor fit]	inconclusive: 0.0012 µM [rising, full curve, poor fit]	inconclusive: 33.2 µM [cytotoxic, single point]	–	inconclusive: 37.2 µM [rising, single point]	–	active: 20.9 µM	inconclusive: 0.0037 µM [rising, full curve]	–
CC(=O)NC(CS)C(=O)O (stereo not drawn)	inactive	inconclusive: 3.32 µM [rising, partial curve, poor fit]	inconclusive: 33.2 µM [cytotoxic, single point]	–	inconclusive: 0.0037 µM [rising, full curve, poor fit]	–	inconclusive: 0.0047 µM [rising, full curve, poor fit]	inconclusive: 0.0033 µM [rising, full curve]	inactive
O=C(Nc1nnc(-c2ccco2)o1)c1cc(-c2ccccc2)nc2ccccc12	inconclusive: 37.2 µM [cytotoxic, single point]	active: 18.7 µM	–	active: 18.7 µM	–	–	–	–	–
COc1ccc2c(OCc3nnc4ccc(-c5ccccc5)nn34)ccnc2c1	inconclusive: 0.0093 µM [rising, full curve, poor fit]	inconclusive: 0.526 µM [cytotoxic, full curve, poor fit]	inconclusive: 8.33 µM [cytotoxic, partial curve, poor fit]	–	–	–	inactive	inconclusive: 0.833 µM [cytotoxic, partial curve, poor fit]	–
O=C(NC[C@H](O)CO)c1ccncc1Nc1ccc(I)cc1F	–	active: 2.35 µM	inconclusive: 18.7 µM [cytotoxic, partial curve, poor fit]	–	active: 1.48 µM	inconclusive: 3.78% [cytotoxic]	inconclusive: 4.18 µM [cytotoxic, partial curve, poor fit]	–	–
COc1ccc2c(c1)CC[C@@H](CN(C)CC(=O)O)[C@H]2c1ccccc1	active: 0.662 µM	active: 0.372 µM	–	inconclusive: 2.96 µM [cytotoxic, full curve]	inconclusive: 1.32 µM [cytotoxic, full curve]	–	–	–	inconclusive: 1.87 µM [cytotoxic, full curve]
Cc1cccc(Nc2nc(N[C@@H]3CCCC[C@H]3N)ncc2C(N)=O)c1	active: 4.18 µM	active: 5.9 µM	active: 16.6 µM	inconclusive: 18.7 µM [cytotoxic, partial curve]	–	–	–	active: 16.6 µM	–
COc1cc2c(cc1OC)[C@@H]1C(=O)c3ccc4c(c3O[C@@H]1CO2)C=CC(C)(C)O4	active: 4.18 µM	active: 1.18 µM	–	–	inconclusive: 0.118 µM [cytotoxic, full curve]	–	–	–	inconclusive: 0.0059 µM [cytotoxic, full curve]
CNC1CCC(N(Cc2cccc(-c3ccncc3)c2)C(=O)c2sc3ccccc3c2Cl)CC1 (stereo not drawn)	active: 8.33 µM	active: 14.8 µM	active: 18.7 µM	–	–	–	–	active: 8.33 µM	–
CN1c2ccccc2C(=O)N2CCc3c([nH]c4ccccc34)C21 (stereo not drawn)	inconclusive: 37.2 µM [cytotoxic, single point]	inactive	inconclusive: 20.9 µM [cytotoxic, single point]	inconclusive: 33.2 µM [cytotoxic, partial curve, poor fit]	inactive	–	inconclusive: 29.6 µM [cytotoxic, single point]	–	–
Nc1ccccc1NC(=O)c1ccc(CNc2nccc(-c3cccnc3)n2)cc1	active: 2.64 µM	active: 1.32 µM	–	–	–	–	–	–	active: 0.833 µM
O=C1c2cccc(O)c2C(=O)c2c(O)cc(CO)cc21	inactive	inactive	inconclusive: 18.7 µM [cytotoxic, partial curve, poor fit]	–	–	–	inconclusive: 23.5 µM [cytotoxic, partial curve]	–	inconclusive: 10.5 µM [cytotoxic, partial curve]
c1cc(OCCN2CCCCC2)cc(-c2n[nH]c3ccc(-c4ncn[nH]4)cc23)c1	active: 14.8 µM	–	–	inconclusive: 11.8 µM [cytotoxic, partial curve]	–	–	inconclusive: 33.2 µM [cytotoxic, single point]	–	active: 14.8 µM

Some of the entries so far, in CSV form.
SMILES,Potency [1],Potency [2],Potency [3],Potency [4],Potency [5],"viability, % of DMSO control [1]",Potency [6],Potency [7],Potency [8]
CC1=C(C(=O)O)N2C(=O)[C@@H](NC(=O)C(N)c3ccccc3)[C@H]2SC1 (stereo partly drawn),inactive,"inconclusive: 0.003 µM [rising, full curve, poor fit]",–,inactive,"inconclusive: 0.0105 µM [cytotoxic, full curve, poor fit]",–,"inconclusive: 0.296 µM [rising, full curve, poor fit]",–,–
CCC(=C(c1ccc(O)cc1)c1ccc(OCCNC)cc1)c1ccccc1,"inconclusive: 33.2 µM [cytotoxic, partial curve, poor fit]","inconclusive: 33.2 µM [cytotoxic, single point]",active: 18.7 µM,–,"inconclusive: 37.2 µM [cytotoxic, single point]",–,–,–,–
